Values from PubChem BioAssay AID1259308 (NCATS, 2017).
Screen: 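Candidate targets for better recombinant protein yield in mammalian cells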 (primary screen). Cells: human HEK293 embryonic kidney cells stably expressing firefly luciferase (HEK-CMV-Luc2-Hygro). Knock-down reagent: single siRNA against human genes, 0.8 pmol siRNA per well. Duration: 72 h. Detection: 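Luciferase light (ONE-Glo) measured on one replicate plate set and viability (CellTiter-Glo) on the other, scaled to a negative control siRNA, with robust z-scores and luciferase per cell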. Reading the numbers: total luciferase, z-score: higher = more reporter protein produced. Hit rule: 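Active when the median/MAD z-score for overall luciferase is greater than 3; a gene was taken forward for validation with new siRNAs if at least two of its three siRNAs passed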. Meaning of the calls: active = raised luciferase; inactive = no rise.
The deposit covers about 59,000 reagents; shown is an unselected part. About 1,510 of all reagents (2.6%) count as active. 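Calls use total luciferase alone and ignore viability, so some active siRNAs may act by altering cell number.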 A number with no mark means an inactive call. The numbers tell different reagents against one gene apart. Further read-outs or replicates are left out here.

ASTE1 #1
- total luciferase, z-score: 0.277

ASTE1 #2
- total luciferase, z-score: 0.656

ASTE1 #3
- total luciferase, z-score: -1.14

PLEKHO1 #1
- total luciferase, z-score: 0.76

PLEKHO1 #2
- total luciferase, z-score: -0.596

PLEKHO1 #3
- total luciferase, z-score: -0.874

PLEKHG6 #1
- total luciferase, z-score: -1

PLEKHG6 #2
- total luciferase, z-score: 2.35

PLEKHG6 #3
- total luciferase, z-score: 1.47

C4orf54 #1
- total luciferase, z-score: 0.272

C4orf54 #2
- total luciferase, z-score: 3.02 (active)

C4orf54 #3
- total luciferase, z-score: -0.0144

MTF2 #1
- total luciferase, z-score: -0.123

MTF2 #2
- total luciferase, z-score: -1.09

MTF2 #3
- total luciferase, z-score: 0.279

Reagents listed so far marked active:
C4orf54 #2
- total luciferase, z-score: 3.02 (active)

The listing continues.
TAS2R4 #1
- total luciferase, z-score: -0.874

TAS2R4 #2
- total luciferase, z-score: 1.57

TAS2R4 #3
- total luciferase, z-score: 3.1 (active)

HSD17B3 #1
- total luciferase, z-score: 0.74

HSD17B3 #2
- total luciferase, z-score: -0.455

HSD17B3 #3
- total luciferase, z-score: 1.33

SOHLH1 #1
- total luciferase, z-score: 1.22

SOHLH1 #2
- total luciferase, z-score: -0.507

SOHLH1 #3
- total luciferase, z-score: -0.387

KITLG #1
- total luciferase, z-score: 0.0727

KITLG #2
- total luciferase, z-score: -0.141

KITLG #3
- total luciferase, z-score: -0.204

CCDC141 #1
- total luciferase, z-score: 0.18

CCDC141 #2
- total luciferase, z-score: 0.853

CCDC141 #3
- total luciferase, z-score: -0.446

TFAP2C #1
- total luciferase, z-score: 3.51 (active)

TFAP2C #2
- total luciferase, z-score: 0.239

TFAP2C #3
- total luciferase, z-score: 0.3

UBE2T #1
- total luciferase, z-score: 0.233

UBE2T #2
- total luciferase, z-score: -0.388

UBE2T #3
- total luciferase, z-score: -0.448

EPHA1 #1
- total luciferase, z-score: 0.698

EPHA1 #2
- total luciferase, z-score: 0.00107

EPHA1 #3
- total luciferase, z-score: 0.0872

ACOT11 #1
- total luciferase, z-score: -2.48

ACOT11 #2
- total luciferase, z-score: -0.0885

ACOT11 #3
- total luciferase, z-score: 2.69
